Patent publication US8466185B2, “Methods and assays for detecting and treating hypoglycemia” (priority 2008, dated 2013)
Some entries share one result that the patent states for a list of compounds. At least one structure is not confirmed: it was looked up by name or label, or the drawing left a doubt.

System: human islets
Experiment: in vitro perifusion, glucagon secretion from human islets
Format: cell-based
Conditions: antagonist 10 μM

SMILES | inhibition of glutamate-induced glucagon release
N#Cc1cc2[nH]c(=O)c(=O)[nH]c2cc1[N+](=O)[O-] [CNQX] | more than 90%
O=[N+]([O-])c1cc2nc(O)c(O)nc2cc1[N+](=O)[O-] [DNQX] | more than 90%
